Values of other authors in patent EP2735339B1, “Extract and isolated compounds from Drechslera rostrata and/or Eurotium tonophilum for use as anti-leishmania-major agents” (King Saud University, priority 2012, dated 2014).
At least one structure is not confirmed: it was looked up by name or label, or the drawing left a doubt.

System: Leishmania sp.
Conditions: cited from earlier work

For `CC1=C2C(=CO[C@H](C)[C@H]2C)C(O)=C(C(=O)O)C1=O` [citrinin], the “activity against Leishmania sp.” value is given as 100%.
